Primary screen of a compound library

Measurements from “University of Dundee, Small-Polar-MMV Screening Library” (2021), ChEMBL document CHEMBL3988442.

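Whole-parasite assay of Trypanosoma brucei over 72 hours; the read-out is not stated. Concentration: 30 µM. Direction is inferred from retests: higher values go with stronger inhibition. Values scatter widely below zero; nearly all retest evidence comes from the higher of the two concentrations used. About 64,000 compounds were tested under these conditions; 1.5% (about 940) showed 50% or more at least once.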

The filed quantity is “Percent Effect” (%).
The record does not define 0% and 100%; most values in the screen are far below 50% and negative numbers occur (in some assays of this library far below -100).
The compounds are a random part of those screened.

structure	effect
CC(NS(=O)(=O)N(C)C)c1cccc(-n2cccn2)c1 (centres undefined)	-68.53
Cc1ccc(CN2CCOC3(CCCN(C(=O)c4ccco4)C3)C2)o1 (centres undefined)	3.601
Cc1cc(CN2CCOC(CN(C)C)C2)no1 (centres undefined)	-45.3
O=C1NCC2(CCCN(Cc3cccnc3)C2)Oc2ccccc21 (centres undefined)	8.502
COc1ccc(OCCNc2cccc(C(=O)N3CCOCC3)c2)cc1	-2.636
CC(C)c1nnc2n1CCN(CCCS(=O)(=O)c1ccccc1)C2	26.28
Cc1noc(CN2CC(=O)N(C)c3ccccc3C2=O)n1	1.829
Oc1ncccc1-c1nc(-c2cccc(CN3CCOCC3)c2)no1	-24.41
O=C1CCN(C(=O)C2(c3ccc(F)cc3)CCCCC2)CCN1	-11.77
COCCS(=O)(=O)NC(C)c1ccc(-n2nc(C)cc2C)cc1 (centres undefined)	-43.4
CCN(CC(=O)NC(C)C)S(=O)(=O)N1CCCCCC1	-23.74
CN(C)C[C@@H]1CN(C(=O)Cc2cccc(O)c2)C[C@@H]1CO	-3.105
CCOCc1ccccc1NC(=O)NC1CCN(CC(F)(F)F)C1 (centres undefined)	8.993
CC(C)NC(=O)CNC(=O)C12CCC(=O)N1c1cc(Cl)ccc1S2 (centres undefined)	-19.73
O=C(Cc1c(F)cccc1Cl)Nc1cc(N2CCOCC2)ncn1	100.3
CC(OCC(F)(F)F)C(=O)NCc1ccc(-n2cncn2)nc1 (centres undefined)	-3.269
Cc1ccc(F)cc1-n1c(COC(C)C)n[nH]c1=O	-12.51
CN(Cc1nc(-c2ccccc2)no1)C(=O)CNS(C)(=O)=O	-6.009
COCC(=O)N1CC(c2ccnc(Nc3ccc(C)cn3)n2)C1	-18.47
O=C(c1ccc(F)c(F)c1)N1CCC[C@]2(C[C@@H](OCC3CC3)CO2)C1	-83.64
Cn1cc(CN(Cc2ccccn2)Cc2ccccc2Cl)cn1	-15.13
O=c1[nH]c(-c2ccncc2)ncc1-c1ccnc(NC2CC2)n1	-25.25
Cc1nc(C(C)C)sc1C(=O)NCCSc1nccn1C	-9.064
CCOc1cccc2c1OCC(C(=O)NS(=O)(=O)c1c(C)noc1C)=C2	6.979
CCOCc1nc(-c2cccc(OC)c2OC)n(C2CCN(C)CC2)n1	-24.53
Cc1ccccc1CN1CCCN(C2CCOC2=O)CC1 (centres undefined)	-19.66
Cc1cn[nH]c1C1COCCN1Cc1cscn1 (centres undefined)	9.755
CCCn1c(C)c(CC(=O)NCCOC)c2c1CC(C)(C)CC2=O	-9.243
Cc1sc(C(=O)NS(C)(=O)=O)cc1-c1ccc(F)cc1	13.67
O=c1ccc2c([nH]1)CCC(NS(=O)(=O)C1CC1)C2 (centres undefined)	-12.28
COc1ccc(CN2CCC(C(N)=O)C2)c(Br)c1OC (centres undefined)	-0.6333
Cc1c(C(=O)NC2(C#N)CCCC2)nnn1-c1ccccc1Cl	5.915
Cn1ccnc1COc1ccc(CSc2nncn2C2CC2)cc1	-36.49
CC(C)N1CCC(Cc2cncc(-c3ccccc3C(=O)O)n2)CC1	12.31
COCc1nc(-c2ccc(S(=O)(=O)N3CCCC3)cc2)cs1	-17.05
[H][C@@]12C[C@H](C)O[C@]1([H])CCN(C(=O)c1cccc3c1OCCO3)C2	-74.95
Cc1ccnn1CCC(=O)N1CCCC2(C1)NC(=O)c1ccccc1O2 (centres undefined)	1.792
[H][C@@]12CN(c3nc(C)cc(C)n3)C[C@]1([H])N(Cc1ccccc1OC)C(=O)O2	-4.628
Cc1nc(-c2ccc(CC(=O)N3CCN(C(=O)C(C)C)CC3)cc2)cs1	-14.88
CSc1nccc(N2CCC(NCc3ccc4nsnc4c3)CC2)n1	-79.95
[H][C@@]12CCN(C(=O)C3CCOCC3)[C@]1([H])CCC(=O)N2Cc1csc(C)n1	-17.53
Cc1nc(C)n(CC2CN(Cc3cccc(C(N)=O)c3)CCO2)n1 (centres undefined)	-31.12
CN1CCOC(CNCc2coc(-c3cccc(Cl)c3)n2)C1 (centres undefined)	98.76
Cc1nc2sc(C(=O)N3CCNC(=O)C3)c(C)c2c(=O)[nH]1	1.155
CCCc1cc(CN(C)C2CSCCSC2)n[nH]1	-53.75
CCOc1ccccc1C(=O)NCCC(O)c1ccoc1 (centres undefined)	10.45
c1ncn(CC2CN(Cc3nc(-c4ccsc4)no3)CCO2)n1 (centres undefined)	4.859
O=C(O)C(F)(F)F.[H][C@@]12COC[C@]1(CNS(=O)(=O)CC)CN(Cc1ccsc1)C2	-15.58
CCOc1cccc(CNc2ccccc2Cl)c1O	-19.48
CC(C)c1noc(CCCC(=O)N2CCN(Cc3ccsc3)CC2)n1	-21.97
COc1c(CNC2(c3noc(C)n3)CCC2)c(C(C)C)nn1C.Cl	-58.22
CN1CCN(c2ccccc2NC(=O)NCCc2ccccc2)CC1	100.1
CC(=O)Nc1nc(C2CCN(C(=O)c3cccnc3)CC2)cs1	31.28
CCc1ccc(CN2CCC3(CC(C(=O)NCC(C)C)=NO3)C2)o1 (centres undefined)	-37.37

Some entries from above, unchanged:

| structure | effect |
|---|---|
| `CC(OCC(F)(F)F)C(=O)NCc1ccc(-n2cncn2)nc1` (centres undefined) | -3.269 |
| `CCOCc1nc(-c2cccc(OC)c2OC)n(C2CCN(C)CC2)n1` | -24.53 |
| `[H][C@@]12C[C@H](C)O[C@]1([H])CCN(C(=O)c1cccc3c1OCCO3)C2` | -74.95 |
| `Cc1c(C(=O)NC2(C#N)CCCC2)nnn1-c1ccccc1Cl` | 5.915 |
| `O=C(Cc1c(F)cccc1Cl)Nc1cc(N2CCOCC2)ncn1` | 100.3 |